Here are results for one molecule from publication PMC11116813.

In this test the target is human HP1α chromoshadow domain (CSD), recombinant (human). The test is described as follows: NMR titration; 13C/15N-labelled HP1α CSD dimer with unlabelled INCENP 160–192 added until the free CSD signals disappeared; 1H-15N HSQC and filtered/edited NOESY, 298 K, 20 mM NaPO4 pH 7.0, 150 mM NaCl, 1 mM DTT, 5% D2O; both purified.

No constants are given. Whether binding was seen depends on the method and setting. Binding can be weak; no strength is given. Tags and fused reporters may be left off the sequences shown.

Take YHTQCQLVPVVEIGISERQNAEQHVTQLMSTEPL (domain or fragment, UniProt Q9NQS7 160-192) [human INCENP (160-192), untagged version (Tyr-added), GST removed]: the binding result was “binds”.
